Reference: paper PMC2978215
These are yes or no findings as the source states them, for the method shown. In cells and extracts the contact can be indirect. Some entries that bind do so weakly or less than the wild type. For part of these data: Tags and fused reporters may be left off the sequences shown.

Amino acid sequences for entries named in this document (tags omitted). A change or cut given only in a name is not applied to a line headed by its entry. Chains listed by the source or under a name are the forms on record and can include a tag or linker. Residues count along the entry.
UniProt P62993, residues 60-152: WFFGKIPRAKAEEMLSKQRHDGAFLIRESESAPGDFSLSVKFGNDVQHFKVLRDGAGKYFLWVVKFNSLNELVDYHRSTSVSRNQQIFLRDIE
Tie2/Tie-2/Tek receptor tyrosine kinase, wild type (Q02858, residues 23-1122): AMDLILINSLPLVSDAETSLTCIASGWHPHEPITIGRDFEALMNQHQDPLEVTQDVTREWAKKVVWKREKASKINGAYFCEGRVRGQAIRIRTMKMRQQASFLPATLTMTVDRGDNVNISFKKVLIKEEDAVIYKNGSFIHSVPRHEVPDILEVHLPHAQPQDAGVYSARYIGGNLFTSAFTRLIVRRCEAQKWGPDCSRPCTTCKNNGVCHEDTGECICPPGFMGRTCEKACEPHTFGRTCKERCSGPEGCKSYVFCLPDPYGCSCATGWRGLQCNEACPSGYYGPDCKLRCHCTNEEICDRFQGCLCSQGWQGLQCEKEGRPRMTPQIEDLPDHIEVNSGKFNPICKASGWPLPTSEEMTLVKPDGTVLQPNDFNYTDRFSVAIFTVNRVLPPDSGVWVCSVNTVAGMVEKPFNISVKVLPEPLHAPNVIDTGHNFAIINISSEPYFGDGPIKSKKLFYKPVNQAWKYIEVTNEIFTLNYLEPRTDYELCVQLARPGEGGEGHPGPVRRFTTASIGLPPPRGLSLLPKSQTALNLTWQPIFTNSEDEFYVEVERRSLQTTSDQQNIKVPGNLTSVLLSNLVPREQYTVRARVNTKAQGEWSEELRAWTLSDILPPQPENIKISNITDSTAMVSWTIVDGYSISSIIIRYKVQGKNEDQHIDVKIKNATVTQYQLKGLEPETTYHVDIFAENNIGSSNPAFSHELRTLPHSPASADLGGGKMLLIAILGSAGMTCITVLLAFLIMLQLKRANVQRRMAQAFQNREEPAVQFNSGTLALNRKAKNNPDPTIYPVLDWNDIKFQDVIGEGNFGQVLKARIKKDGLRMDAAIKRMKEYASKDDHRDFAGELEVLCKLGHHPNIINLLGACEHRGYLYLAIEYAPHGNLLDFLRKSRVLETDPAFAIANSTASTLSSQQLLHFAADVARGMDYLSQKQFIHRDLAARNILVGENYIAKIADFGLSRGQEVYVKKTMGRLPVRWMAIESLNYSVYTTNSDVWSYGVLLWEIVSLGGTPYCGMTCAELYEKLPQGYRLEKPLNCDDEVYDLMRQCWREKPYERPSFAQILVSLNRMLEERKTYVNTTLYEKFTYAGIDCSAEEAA
Tie2 K853A, kinase inactive mutant (Q02858, form named): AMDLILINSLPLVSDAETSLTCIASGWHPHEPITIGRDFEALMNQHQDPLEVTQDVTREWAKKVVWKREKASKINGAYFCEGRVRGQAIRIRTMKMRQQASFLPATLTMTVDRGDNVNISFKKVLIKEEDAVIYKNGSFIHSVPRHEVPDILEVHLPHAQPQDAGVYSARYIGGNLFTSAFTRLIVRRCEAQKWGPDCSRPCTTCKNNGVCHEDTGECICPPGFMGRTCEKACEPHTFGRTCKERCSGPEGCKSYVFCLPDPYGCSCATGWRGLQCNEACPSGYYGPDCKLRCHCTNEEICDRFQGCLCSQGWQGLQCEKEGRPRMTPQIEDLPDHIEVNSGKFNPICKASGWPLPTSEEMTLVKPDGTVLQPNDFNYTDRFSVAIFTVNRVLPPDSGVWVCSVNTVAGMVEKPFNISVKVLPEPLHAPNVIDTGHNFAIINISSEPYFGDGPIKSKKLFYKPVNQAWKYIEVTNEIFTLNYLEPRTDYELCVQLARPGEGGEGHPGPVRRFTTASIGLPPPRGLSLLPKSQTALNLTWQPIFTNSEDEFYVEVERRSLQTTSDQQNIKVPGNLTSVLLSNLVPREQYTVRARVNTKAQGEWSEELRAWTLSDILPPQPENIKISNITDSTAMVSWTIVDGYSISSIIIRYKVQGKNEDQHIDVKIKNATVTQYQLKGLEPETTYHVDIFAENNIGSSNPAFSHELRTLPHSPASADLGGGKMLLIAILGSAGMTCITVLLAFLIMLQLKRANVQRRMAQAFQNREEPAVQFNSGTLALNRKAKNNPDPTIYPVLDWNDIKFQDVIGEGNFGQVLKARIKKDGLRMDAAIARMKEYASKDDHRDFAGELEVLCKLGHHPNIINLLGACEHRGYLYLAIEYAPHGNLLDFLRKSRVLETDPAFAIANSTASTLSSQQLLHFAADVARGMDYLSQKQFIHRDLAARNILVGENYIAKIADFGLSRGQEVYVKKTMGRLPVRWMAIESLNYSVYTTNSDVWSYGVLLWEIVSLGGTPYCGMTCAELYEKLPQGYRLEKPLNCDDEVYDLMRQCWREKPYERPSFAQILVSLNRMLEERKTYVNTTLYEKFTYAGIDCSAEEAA

How the values were obtained:
[1] = molecular target: GST-SH2 domain of Grb2 (UniProt P62993); assay: pull-down; GST-SH2 domains purified from E. coli and immobilized on glutathione-Sepharose beads, incubated with lysates of HEK293T cells transiently expressing WT Tie2 or K853A; complexes resolved by SDS-PAGE and immunoblotted with anti-Tie2; only the target purified
[2] = molecular target: T1, GST-SH2 domain of Grb14 (UniProt Q14449); assay: as above
T1 sequence: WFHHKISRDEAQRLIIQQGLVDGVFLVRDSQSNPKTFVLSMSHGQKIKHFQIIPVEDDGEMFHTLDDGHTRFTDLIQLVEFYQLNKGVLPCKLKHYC

binding [1] | binding [2] | Substance
binds | binds | Tie2/Tie-2/Tek receptor tyrosine kinase, wild type (from UniProt Q02858 23-1122)
– | no binding | Tie2 K853A, kinase inactive mutant (from UniProt Q02858 23-1122) (receptor)
